Over roughly 33,000 sequences, “E-score (-0.5 to 0.5)” has its median near -0.0059; the highest 2% begin near 0.26. The list shows a part of the results.
Target: T1, Cin5 (UniProt P40917)
T1 sequence: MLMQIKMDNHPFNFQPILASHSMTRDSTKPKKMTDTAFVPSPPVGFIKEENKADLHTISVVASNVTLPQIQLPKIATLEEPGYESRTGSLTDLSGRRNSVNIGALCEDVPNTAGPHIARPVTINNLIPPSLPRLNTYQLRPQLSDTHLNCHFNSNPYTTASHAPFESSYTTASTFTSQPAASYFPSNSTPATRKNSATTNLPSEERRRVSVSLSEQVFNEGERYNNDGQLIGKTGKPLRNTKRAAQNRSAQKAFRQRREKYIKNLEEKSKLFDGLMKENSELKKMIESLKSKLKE
Assay: PBM E-score (8-mer binding enrichment) (E-score (-0.5 to 0.5)); higher = stronger / more preferred TF binding
Conditions: protein concentration: 100 nM; construct: GST-full length
How it was run: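 Masliner-normalised scans of fluorescent anti-GST signal were the basis for scoring. That signal came from GST-tagged yeast transcription factors applied at about 100-200 nM to double-stranded universal all-10-mer Agilent arrays on fresh or once-stripped slides. Each ungapped eight-base word, pooled with its reverse complement, received an E-score from the Universal PBM Analysis Suite.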

| Sequence | PBM E-score |
| --- | --- |
| AATTTCTA | 0.0624 |
| AAACCCGG | 0.0754 |
| ATTGGATG | 0.0851 |
| GATCTTTA | 0.0443 |
| AGGTCTTC | -0.214 |
| GACCACCA | -0.00784 |
| ACCTAGCT | -0.136 |
| AATGGAGT | 0.0271 |
| ATGTCCTG | 0.0532 |
| AAAATCAT | -0.00949 |
| CGAACAGA | 0.0198 |
| ACCAAACC | 0.0718 |
| ACCGACAT | 0.154 |
| GTCGCGAA | -0.0343 |
| TATCCGAA | 0.105 |
| CCGGGTTC | -0.00014 |
| GAGAGCCA | -0.169 |
| CCAGGCTC | -0.111 |
| GCCAGGTA | -0.136 |
| AAGATCAC | 0.00189 |
| AACGTTAC | 0.0684 |
| AACTATAC | 0.0815 |
| GCGATGCA | -0.141 |
| GAAGATCA | 0.045 |
| CCTGGGAG | -0.176 |

Quoted from the listing:
PBM E-score, AACTATAC is entered as 0.0815
PBM E-score, ATTGGATG is entered as 0.0851

The list continues:

| Sequence | PBM E-score |
| --- | --- |
| GGGTGACC | -0.162 |
| AAGGGCTA | -0.195 |
| CGAGGATC | 0.00246 |
| GACATTCC | -0.11 |
| CCGCCCAC | 0.101 |
| CACTCATG | 0.048 |
| CTTGCACC | 0.0355 |
| ACGCACAG | -0.0217 |
| AGGCGCTA | -0.00892 |
| CAAAACAA | 0.0938 |
| AGTTCATC | 0.0362 |
| AAGGATGT | 0.0893 |
| GGCGGGTA | -0.194 |
| CACCGTTA | -0.00561 |
| AGGCTAAA | -0.167 |
| AAATATTG | 0.222 |
| CCGGCAAG | 0.0607 |
| GTCTATGA | 0.0619 |
| GGCGACAC | -0.212 |
| CGTCTCGA | 0.0556 |
| AATGATTA | 0.335 |
| AAGGATCC | -0.108 |
| GTAAACAA | 0.237 |
| CGCCATCC | -0.0115 |
| ATGGGAAA | -0.0979 |

A different layout for some results above:
Sequence	PBM E-score
CTTGCACC	0.0355
AAGGATGT	0.0893
AGGCTAAA	-0.167
CCGGCAAG	0.0607
CGTCTCGA	0.0556
GTAAACAA	0.237

Remaining list, next part.

| Sequence | PBM E-score |
| --- | --- |
| CAAAAGTC | -0.0102 |
| ATAGCTCC | -0.144 |
| CACTCCAA | 0.0371 |
| GCTATACA | 0.0282 |
| ACCATAGT | 0.0297 |
| GTGTCTTA | 0.00212 |
| GACTCGGC | -0.309 |
| AGTACGCG | 0.127 |
| GCGTAATA | 0.121 |
| TATCCCCA | 0.176 |
| GAATAGTC | 0.0917 |
| GTTCAATA | 0.0984 |
| CTTTCTTA | 0.0341 |
| AAGATCCA | -0.0415 |
| CTTCCGGA | -0.0412 |
| AACAAGTA | 0.0249 |
| CCCTCCCA | 0.106 |
| AACCTCTG | -0.122 |
| TGGCGCCA | 0.015 |
| ACTGGGTC | -0.227 |
| ATGGTATA | 0.21 |
| GGAAAGAA | 0.0776 |
| TGCGCCAA | -0.0249 |
| CGGGGTCA | -0.0205 |
| CCTGGGAC | -0.269 |

| Sequence | PBM E-score |
| --- | --- |
| AGTATACG | 0.0533 |
| AATTTACA | 0.0594 |
| CCCCTTAC | -0.131 |
| CAATAGCA | -0.144 |
| ACTACGCC | -0.108 |
| ATAACATC | 0.189 |
| GCTTACGA | 0.414 |
| CGTCTCAA | 0.189 |
| AAAGAAAA | 0.112 |
| ATTCTAAC | 0.0781 |
| GTAATAGA | 0.177 |
| ACATTCAG | -0.0494 |
| AAATAAAA | 0.146 |
| AGCCAGTA | -0.0197 |
| TAGATATA | 0.255 |
| AATAACCA | 0.0553 |
| AATACAAC | 0.236 |
| GAGGAATC | -0.0894 |
| CTTACCAC | 0.0364 |
| ATGATTAC | 0.362 |
| ATATAAAC | 0.255 |
| CGCACGGC | 0.001 |
| GGGTTTAA | -0.0116 |
| AGTCGGCC | -0.115 |
| GTTGCGAA | 0.112 |

| Sequence | PBM E-score |
| --- | --- |
| TCGGGCAA | -0.0455 |
| AGACAGCG | -0.258 |
| GTCGGTAA | -0.0358 |
| TACAGCTA | -0.026 |
| CGACTTGC | -0.0714 |
| ACAATGAT | 0.104 |
| GTGAGGAA | -0.138 |
| CGTGAAAC | -0.118 |
| ACGCAAAT | -0.0291 |
| GACATTAA | 0.0285 |
| CATGAGGA | 0.102 |
| CCCCACGA | -0.057 |
| TCCACGAA | 0.0641 |
| AGCTCCTC | -0.271 |
| CCGTGCCC | -0.272 |
| AAACGAGT | 0.139 |
| AGTTTCAA | 0.0759 |
| CTCAATGC | -0.154 |
| ATGTTGAA | 0.229 |
| AACGATGC | -0.189 |
| CCACATGA | 0.0875 |
| GAAGTGAC | -0.0962 |
| CCCAATTA | 0.192 |
| CGAAGGGC | -0.198 |
| CTCACGTC | 0.0887 |

| Sequence | PBM E-score |
| --- | --- |
| CGGGACTA | -0.207 |
| GAAACGAA | 0.23 |
| AAAATATG | 0.208 |
| ACGTTTAG | -0.0908 |
| GCCAATTA | 0.155 |
| ATGCTTCG | -0.0239 |
| CGTGTGTC | -0.0401 |
| ACAGGATC | -0.169 |
| AAATGATC | 0.00639 |
| CGGGCTCC | -0.345 |
| CTACAGGA | -0.0551 |
| CAGGACCG | -0.0844 |
| GGCCTTAC | -0.103 |
| AAAGATAA | 0.195 |
| CGGGCGGA | 0.046 |
| CTTATCAC | 0.0488 |
| GGATGCGA | -0.124 |
| AGGAAACT | 0.0384 |
| ATTCCATC | 0.251 |
| ACCCTATA | -0.0767 |
| ATGATAGC | 0.269 |
| AAAGCCCA | 0.0381 |
| GAAAGTCA | -0.0298 |
| AAGAATTA | 0.0191 |
| ACCCGGAA | 0.157 |

| Sequence | PBM E-score |
| --- | --- |
| CTGAAGGC | -0.263 |
| TATTTAGA | 0.0382 |
| GTCTAGAA | -0.0476 |
| CATCCCCG | 0.147 |
| CAAAATTC | 0.176 |
| ATCTGGTC | 0.0761 |
| TGATGCAA | 0.058 |
| GACAAACA | 0.097 |
| TGCCGACA | 0.0482 |
| CCATTGTA | 0.112 |
| TACAAGCA | 0.181 |
| AATGCACT | 0.135 |
| CCCGAAAC | -0.00642 |
| ACGTATAT | 0.17 |
| AATTAACG | 0.0734 |
| GCGTTAGA | -0.122 |
| ATTACCTC | 0.142 |
| AACGCGAC | -0.0931 |
| ATGCAAAG | 0.0362 |
| GGGCTTCA | -0.195 |
| ATAGTCAG | 0.0775 |
| CAAACGCG | 0.111 |
| GCACCAGA | -0.0922 |
| AGCCGCAA | -0.0364 |
| CCGCTTTC | -0.108 |

| Sequence | PBM E-score |
| --- | --- |
| ACAATAAT | 0.267 |
| CGACCTCG | 0.0228 |
| TCACGAGA | -0.0923 |
| ACTGAAGC | -0.00573 |
| CACTCCTG | -0.00638 |
| AAGTCATC | -0.00719 |
| AGAAGGCC | -0.126 |
| AAGAACGG | -0.0706 |
| CTGCCAAA | -0.065 |
| CGATTCTA | -0.0351 |
| AGTCCACT | -0.146 |
| AAGAAGGT | 0.00043 |
| AAAAGTCC | -0.0209 |
| CTACCGCC | -0.0561 |
| CGATAAGC | -0.0158 |
| TGGAGGAA | -0.129 |
| AGATAGGG | -0.0638 |
| AGACCAAG | 0.0931 |
| GAATGCAA | 0.11 |
| ACCGGTAC | -0.217 |
| AATAATGA | 0.151 |
| GAAAATGA | 0.154 |
| ATGCGAAT | 0.173 |
| ACTCCGGA | 0.189 |
| AACGGATA | 0.227 |

| Sequence | PBM E-score |
| --- | --- |
| CCAGTCAA | -0.0335 |
| AACCTTAT | -0.0545 |
| ACGGGCAC | -0.193 |
| CGCGAGGC | 0.104 |
| AATAGATC | 0.204 |
| CCTTAGCC | 0.0505 |
| TCTAAAGA | 0.0418 |
| CGTCCATA | 0.0392 |
| GCGGTATA | 0.179 |
| GGCCACCA | 0.0556 |
| CGGAATTA | 0.201 |
| AGAGCAAG | 0.14 |
| ACACGAGT | 0.0613 |
| GTGGCTAA | 0.181 |
| GGTACTAA | 0.0479 |
| ACAATCGT | -0.0859 |
| ACGATCCC | 0.00128 |
| CCAAGCGG | -0.143 |
| ACCTGATA | 0.142 |
